These results are taken from patent US20190315859A1.

The chains behind the UniProt entries cited, without tags or fusion partners. Residues count along the entry.
UniProt P15391, 20-488 limits assumed: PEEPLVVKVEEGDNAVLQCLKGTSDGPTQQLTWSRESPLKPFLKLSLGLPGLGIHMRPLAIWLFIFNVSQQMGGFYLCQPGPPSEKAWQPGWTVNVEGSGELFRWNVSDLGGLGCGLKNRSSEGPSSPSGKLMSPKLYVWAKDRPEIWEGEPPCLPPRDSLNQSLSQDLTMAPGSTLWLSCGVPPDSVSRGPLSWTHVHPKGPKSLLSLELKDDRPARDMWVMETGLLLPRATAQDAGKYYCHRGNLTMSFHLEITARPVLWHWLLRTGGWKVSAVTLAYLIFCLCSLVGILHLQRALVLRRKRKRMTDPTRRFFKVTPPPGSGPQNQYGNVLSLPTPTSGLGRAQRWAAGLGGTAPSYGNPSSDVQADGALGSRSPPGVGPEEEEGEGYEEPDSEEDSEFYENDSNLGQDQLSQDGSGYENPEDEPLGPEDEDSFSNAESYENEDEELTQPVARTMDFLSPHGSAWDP

The test addresses human CD19 expressed on the cell surface (native format) (human) (UniProt P15391). Briefly: flow cytometry, human PBMC gated on CD20+CD3- B cells, FITC anti-His detection. (In general: In flow cytometry, cells or beads pass a laser one at a time.)

B1: CD19×CD3 bi-specific antibody using clone 37 (bispecific antibody, part only; not given: anti-CD3 scFv arm, linker, His tag, not shown: another chain or arm of the molecule; small tags and cut ends)
scFv: EIVLTQSPSSLSASVGDRVTISCRASQSVSRFLNWYQQKPGKAPKLLIYGVSTLERGVPSRFSGSGSGTDFTLTISSLQPEDFATYYCQESYIIPLTFGGGTKLEIKRSRGGGGSGGGGSGGGGSLEMAEVQLVQSGAEVKRPGESLTISCKGSEYSFASYWITWVRQMPGKGLEWMGRIDPSDSYTNYSPSFQGHVTISADKSISTAYLQWSSLKASDTAIYYCARPFQYDYGGYSDAFDIWGQGTMVTVSS
Turning to B1, the Mean Fluorescence Intensity (MFI) in FITC channel worked out at 2080 MFI.
